Source: PubChem BioAssay AID662 (National Center for Advancing Translational Sciences (NCATS), 2007)
The other results are listed elsewhere or left out. Shown are side measurements of this screen, not its main read-out; they come without a call. Compounds called inactive in the main read-out are mostly missing here. The note in brackets gives the kind of curve behind each potency; many fits are weak.

Experiment: Cell signaling CRE-BLA (Fsk stim)
Conditions: CHO CRE-bla reporter (cAMP response element driving beta-lactamase), forskolin EC10, beta-lactamase ratio; measured here: 460 nm blue channel
Method in brief: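 Cells were plated overnight at 37 °C, exposed to compound titrations plus EC10 NKH 477 for 3 h, then given CCF4 dye for 2 h at room temperature. Blue/green (460/530 nm) ratio was converted to %Activity and AC50 values calculated.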

Q: With `CCOC(=O)c1cc2c(ccn2C)n1CC(=O)N1CCN(c2ccc(F)cc2)CC1` as the molecule, how does the AC50 read?
A: The AC50 was 25.1 µM [falling, partial curve, poor fit].

Q: For `COc1ccc(-c2nc3cnc(N(C)C)nc3n(-c3ccccc3)c2=O)cc1`, which AC50 is on record?
A: Its AC50 is 2 µM [rising, full curve].

Q: For `COC(=O)[C@@]1(Cc2ccc(OC)cc2)[C@H]2c3cc(C(=O)N(C)C)n(Cc4cc(C)n(C)n4)c3C[C@H]2CN1C(=O)c1ccccc1`, which AC50 is on record?
A: Its AC50 is 12.6 µM [rising, partial curve].

Q: Which AC50 does the source give for `CC(=O)C1=C(C)NC(SCC(=O)c2ccc(C)cc2)=C(C#N)C1c1ccco1` (stereo not drawn) here?
A: Its AC50 is 2 µM [rising, full curve].

Q: Which AC50 does the source give for `Cc1noc(C)c1C(=O)N1CCC[C@@]2(CCN(c3cccc(-c4ccccc4)c3)C2)C1` here?
A: The AC50 was 12.6 µM [rising, single point].

Q: With `Cc1cccc(N2CCN(C(=O)c3cc4c(=O)n(C)c5ccccc5c4n3C)CC2C)c1` (stereo not drawn) as the molecule, how does the AC50 read?
A: Its AC50 is 12.6 µM [falling, single point].

Q: Which AC50 does the source give for `Cc1noc(C)c1CSc1nc2sc(C)c(C)c2c(=O)n1C1CCCC1` here?
A: The AC50 was 2 µM [rising, partial curve].

Q: Which AC50 does the source give for `COc1ccc(S(=O)(=O)N(CC(=O)Nc2ccc3c(c2)OCO3)c2ccccc2OC)cc1` here?
A: The AC50 was 25.1 µM [falling, single point].

Q: With `CCOc1ccc(-c2[nH]nc3c2C(c2ccc4c(c2)OCO4)C(C#N)=C(N)O3)cc1OC` (stereo not drawn) as the molecule, how does the AC50 read?
A: Its AC50 is 0.794 µM [rising, full curve].

Q: Which AC50 does the source give for `Cc1cccnc1-n1c(CCN2C(=O)c3ccccc3C2=O)nc2ccccc2c1=O` here?
A: The AC50 was 12.6 µM [rising, single point].

Q: For `O=C(C1CCC1)N1CCc2cc(S(=O)(=O)NC3CCCC3)ccc21`, which AC50 is on record?
A: Its AC50 is 10 µM [rising, single point].

Q: Which AC50 does the source give for `Cc1nn(C)cc1CNC(=O)c1cnn2c(C(F)F)cc(C3CC3)nc12` here?
A: The AC50 was 7.94 µM [rising, partial curve].

Q: Which AC50 does the source give for `CCC1(C)Cc2c(sc3nc4n(c(=O)c23)CCCS4)CO1` (stereo not drawn) here?
A: The AC50 was 0.00631 µM [falling, full curve, poor fit].

Q: With `COc1ccccc1N1CCN(C(=O)CSc2ccc3c(C)cc(C)nc3n2)CC1` as the molecule, how does the AC50 read?
A: The AC50 was 15.8 µM [rising, single point].

Q: For `COCCn1c(=O)cnc2cnc(Nc3ccccc3)nc21`, which AC50 is on record?
A: The AC50 was 2.51 µM [falling, full curve].

Q: For `Nc1ccccc1NC(=O)c1ccccc1`, which AC50 is on record?
A: Its AC50 is 0.316 µM [rising, partial curve].

Q: For `Cn1c(=N)c(S(=O)(=O)c2ccccc2)cc2c(=O)n3ccccc3nc21`, which AC50 is on record?
A: The AC50 was 2.51 µM [rising, full curve].

Q: Which AC50 does the source give for `Cc1c(CN2CCCCC2C)c(=O)n(-c2ccccc2)n1C` (stereo not drawn) here?
A: Its AC50 is 0.00794 µM [falling, full curve, poor fit].
